The text below walks through data of article PMC7562919.

For assay [1], the target named is HA-FLAG-SOC3 (Arabidopsis thaliana) (UniProt F4I901). Put plainly: proximity labelling; TurboID fusion co-expressed with the FLAG-tagged partner in N. benthamiana leaves, 48 h; FLAG immunoprecipitation, biotinylated proteins detected with Streptavidin-HRP on western blot. A general note: A western blot detects proteins with antibodies after separation by electrophoresis.

In assay [2] the target is T1, DN-SUSA2-FLAG (Arabidopsis thaliana) (UniProt Q9FKT0).
T1 sequence: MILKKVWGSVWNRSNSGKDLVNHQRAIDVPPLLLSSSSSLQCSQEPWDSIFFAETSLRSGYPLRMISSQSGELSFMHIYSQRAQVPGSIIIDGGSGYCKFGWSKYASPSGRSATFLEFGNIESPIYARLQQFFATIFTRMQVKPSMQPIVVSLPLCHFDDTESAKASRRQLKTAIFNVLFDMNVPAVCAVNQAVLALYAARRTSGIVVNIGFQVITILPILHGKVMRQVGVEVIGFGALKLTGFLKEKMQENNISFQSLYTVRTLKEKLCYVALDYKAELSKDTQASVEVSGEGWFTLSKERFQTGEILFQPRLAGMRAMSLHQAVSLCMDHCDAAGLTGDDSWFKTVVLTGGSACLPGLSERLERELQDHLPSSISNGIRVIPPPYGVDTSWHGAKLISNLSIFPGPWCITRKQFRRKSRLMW
The assay is described as above.

These are yes or no findings as the source states them, for the method shown. In cells and extracts the contact can be indirect. A yes stands for co-enrichment or nearness to the bait. Other partners may have been found. Sequences can lack the tags named with a protein.

B1: DN-SUSA2-Turbo-HA (protein, UniProt Q9FKT0)
chain: MILKKVWGSVWNRSNSGKDLVNHQRAIDVPPLLLSSSSSLQCSQEPWDSIFFAETSLRSGYPLRMISSQSGELSFMHIYSQRAQVPGSIIIDGGSGYCKFGWSKYASPSGRSATFLEFGNIESPIYARLQQFFATIFTRMQVKPSMQPIVVSLPLCHFDDTESAKASRRQLKTAIFNVLFDMNVPAVCAVNQAVLALYAARRTSGIVVNIGFQVITILPILHGKVMRQVGVEVIGFGALKLTGFLKEKMQENNISFQSLYTVRTLKEKLCYVALDYKAELSKDTQASVEVSGEGWFTLSKERFQTGEILFQPRLAGMRAMSLHQAVSLCMDHCDAAGLTGDDSWFKTVVLTGGSACLPGLSERLERELQDHLPSSISNGIRVIPPPYGVDTSWHGAKLISNLSIFPGPWCITRKQFRRKSRLMW
Take B1: the binding result in assay [1] is reported as “binds”.

B2: CHS1-Turbo-HA (protein, UniProt F4I902 1-420)
chain: MSTSYSFLLAGRELDVFLSFSGKIALDVDFGYDLSRNGIKAFKSESWKESSFKPIDLRTLEALTESKVAVVMTSDEEVSSVGFLEELIVIIEFQEKRSLTVIPVFLTKHPLDVEKVSQIFPERAKIWRTAIAKLDNIAAQYSFSRNLAVMHGTHRIKQIADDIRLMFLSSASSDFKGLAGMDRHMKALYALLALESDEKVRTIGIWGSSGVGKTTLARYTYAEISVKFQAHVFLENVENMKEMLLPSENFEGEDLRSVNHEMNEMAEAKQKHRKVLLIADGVNNIEQGKWIAENANWFAPGSRVILITQEKSLLVQSGVNHVYEVGSLRYDEALQLFSRFAFKQPYPSPDFERLSVRAVQLAGFLPVTIRLFGSFLTGRDKEEWEATLLKLNAKQGKDIKEVWKIMEALEDKDIVEASQR
Turning to B2, the binding entry in assay [2] is “binds”.
